# Library screen at single concentrations

Chains of the proteins cited; added tags and fusions are not shown. Residues count along the entry.
UniProt I6X8D2, whole entry: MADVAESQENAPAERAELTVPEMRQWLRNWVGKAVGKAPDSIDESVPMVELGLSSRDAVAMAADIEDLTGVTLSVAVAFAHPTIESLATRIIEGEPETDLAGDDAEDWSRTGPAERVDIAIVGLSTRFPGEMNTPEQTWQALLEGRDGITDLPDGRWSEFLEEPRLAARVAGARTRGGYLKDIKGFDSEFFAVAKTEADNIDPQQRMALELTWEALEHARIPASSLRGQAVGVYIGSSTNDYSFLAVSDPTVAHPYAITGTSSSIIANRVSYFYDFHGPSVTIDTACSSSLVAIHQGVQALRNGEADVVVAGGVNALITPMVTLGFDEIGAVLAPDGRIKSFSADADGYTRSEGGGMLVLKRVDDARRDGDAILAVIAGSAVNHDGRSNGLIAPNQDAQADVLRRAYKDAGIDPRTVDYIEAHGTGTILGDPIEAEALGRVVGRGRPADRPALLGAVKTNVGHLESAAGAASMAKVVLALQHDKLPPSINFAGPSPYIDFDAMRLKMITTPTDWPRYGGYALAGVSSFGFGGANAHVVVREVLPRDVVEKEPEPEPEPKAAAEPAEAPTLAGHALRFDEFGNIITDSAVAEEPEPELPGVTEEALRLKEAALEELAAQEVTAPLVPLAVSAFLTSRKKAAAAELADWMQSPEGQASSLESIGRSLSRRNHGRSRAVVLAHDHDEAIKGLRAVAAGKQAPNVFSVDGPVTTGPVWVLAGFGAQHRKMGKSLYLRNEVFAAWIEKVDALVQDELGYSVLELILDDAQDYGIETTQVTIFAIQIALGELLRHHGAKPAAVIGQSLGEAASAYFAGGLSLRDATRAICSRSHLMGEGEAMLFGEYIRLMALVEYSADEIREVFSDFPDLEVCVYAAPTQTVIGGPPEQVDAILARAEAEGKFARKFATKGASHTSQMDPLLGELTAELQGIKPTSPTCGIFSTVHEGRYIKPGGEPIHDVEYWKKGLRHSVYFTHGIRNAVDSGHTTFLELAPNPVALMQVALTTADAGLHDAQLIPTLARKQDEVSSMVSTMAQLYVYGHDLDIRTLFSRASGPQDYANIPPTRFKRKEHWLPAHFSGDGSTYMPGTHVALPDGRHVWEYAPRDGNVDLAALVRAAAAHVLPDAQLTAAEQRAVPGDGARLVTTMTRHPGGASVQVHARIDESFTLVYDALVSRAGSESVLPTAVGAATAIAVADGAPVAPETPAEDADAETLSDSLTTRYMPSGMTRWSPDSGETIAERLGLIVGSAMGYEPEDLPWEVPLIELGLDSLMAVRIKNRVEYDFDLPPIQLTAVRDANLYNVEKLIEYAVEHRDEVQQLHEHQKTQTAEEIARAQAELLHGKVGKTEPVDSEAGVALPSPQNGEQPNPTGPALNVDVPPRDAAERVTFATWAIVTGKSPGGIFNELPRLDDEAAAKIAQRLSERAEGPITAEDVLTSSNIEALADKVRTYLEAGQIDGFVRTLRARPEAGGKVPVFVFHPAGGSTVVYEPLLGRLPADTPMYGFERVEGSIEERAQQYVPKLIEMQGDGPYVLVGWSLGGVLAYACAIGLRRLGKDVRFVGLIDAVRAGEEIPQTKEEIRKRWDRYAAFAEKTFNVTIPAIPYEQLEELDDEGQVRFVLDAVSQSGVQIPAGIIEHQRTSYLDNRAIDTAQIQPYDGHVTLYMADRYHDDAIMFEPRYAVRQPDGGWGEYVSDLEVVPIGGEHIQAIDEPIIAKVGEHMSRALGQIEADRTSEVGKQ
UniProt Q4DA54, 1-478: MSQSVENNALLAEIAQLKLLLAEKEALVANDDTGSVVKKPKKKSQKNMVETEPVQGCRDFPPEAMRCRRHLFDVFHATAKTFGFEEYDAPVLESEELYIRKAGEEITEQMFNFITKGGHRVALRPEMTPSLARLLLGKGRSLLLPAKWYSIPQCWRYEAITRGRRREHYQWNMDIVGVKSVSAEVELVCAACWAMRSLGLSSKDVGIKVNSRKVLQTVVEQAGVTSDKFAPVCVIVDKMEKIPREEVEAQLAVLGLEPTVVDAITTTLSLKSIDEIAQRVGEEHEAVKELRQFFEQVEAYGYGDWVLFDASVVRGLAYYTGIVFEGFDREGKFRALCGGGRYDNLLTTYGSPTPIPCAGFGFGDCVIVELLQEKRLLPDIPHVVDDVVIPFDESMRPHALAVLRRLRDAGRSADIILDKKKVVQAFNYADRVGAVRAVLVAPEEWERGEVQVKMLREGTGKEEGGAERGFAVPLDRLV
UniProt P9WPC5, whole entry: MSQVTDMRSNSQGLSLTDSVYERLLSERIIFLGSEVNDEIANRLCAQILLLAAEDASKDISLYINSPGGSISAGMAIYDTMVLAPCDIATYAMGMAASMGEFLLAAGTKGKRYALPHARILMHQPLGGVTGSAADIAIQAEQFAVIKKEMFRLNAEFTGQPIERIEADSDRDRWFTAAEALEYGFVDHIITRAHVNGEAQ
UniProt P9WPC3, whole entry partner: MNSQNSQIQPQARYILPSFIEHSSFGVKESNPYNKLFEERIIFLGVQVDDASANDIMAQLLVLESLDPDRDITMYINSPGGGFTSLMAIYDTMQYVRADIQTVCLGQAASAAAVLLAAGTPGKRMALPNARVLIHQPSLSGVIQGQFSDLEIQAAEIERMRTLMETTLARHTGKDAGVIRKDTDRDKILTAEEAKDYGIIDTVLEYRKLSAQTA
UniProt A4I591, 1-473: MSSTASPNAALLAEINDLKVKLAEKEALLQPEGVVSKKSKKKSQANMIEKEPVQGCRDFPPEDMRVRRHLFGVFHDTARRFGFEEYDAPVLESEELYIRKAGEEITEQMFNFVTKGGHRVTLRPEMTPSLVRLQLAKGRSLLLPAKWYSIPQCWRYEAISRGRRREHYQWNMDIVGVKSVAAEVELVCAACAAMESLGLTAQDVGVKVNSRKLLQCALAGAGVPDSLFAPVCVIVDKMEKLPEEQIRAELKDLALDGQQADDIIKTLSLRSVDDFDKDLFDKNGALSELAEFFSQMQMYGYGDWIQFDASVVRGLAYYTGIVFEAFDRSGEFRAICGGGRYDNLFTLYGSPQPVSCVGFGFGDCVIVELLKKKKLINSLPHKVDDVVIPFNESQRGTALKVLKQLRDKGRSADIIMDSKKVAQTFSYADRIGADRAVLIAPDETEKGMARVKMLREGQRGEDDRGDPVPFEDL

Pks13 thioesterase: 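Enzyme assay of the thioesterase domain of polyketide synthase 13; the read-out is not stated. Target: Polyketide synthase Pks13, Mycobacterium tuberculosis (UniProt I6X8D2). Concentration: 30 µM. Higher reads as stronger inhibition (inferred from which compounds were picked for retests). Of about 67,000 compounds tested this way, about 300 (0.46%) reached 50% or more in at least one test.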
TcHisRS: 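Histidine-tRNA ligase, Trypanosoma cruzi CL Brener (UniProt Q4DA54). Enzyme assay of histidyl-tRNA synthetase; the read-out is not stated. Compounds at 30 µM. Higher reads as stronger inhibition (inferred: compounds with an IC50 in retests scored well above the rest). Size under these conditions: about 69,000 compounds, about 31 of them at 50% or above in at least one test.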
ClpP1P2: 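Protease assay of ClpP1P2, read by the AMC dye that it sets free. Target: ClpP1P2, Mycobacterium tuberculosis (UniProt P9WPC5 and UniProt P9WPC3). Compounds at 50 µM. Higher reads as stronger inhibition, judged from the few compounds that gave an IC50. Most other retested compounds had strongly negative values. Of about 69,000 compounds tested this way, about 10 (0.015%) reached 50% or more in at least one test.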
Leishmania in macrophages: 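Cell assay of Leishmania donovani living inside macrophages; the read-out is not stated. Concentration: 30 µM. Higher reads as stronger inhibition (inferred: compounds with an IC50 in retests scored well above the rest). Of about 69,000 compounds tested this way, about 1,000 (1.5%) reached 50% or more in at least one test.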
LiHisRS: 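Histidine-tRNA ligase, Leishmania infantum (UniProt A4I591). Enzyme assay of histidyl-tRNA synthetase; the read-out is not stated. Tested at 30 µM. Higher reads as stronger inhibition (inferred: compounds with an IC50 in retests scored well above the rest). The assay is labelled LdHisRS but filed under L. infantum. Of about 69,000 compounds tested this way, about 410 (0.6%) reached 50% or more in at least one test.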

Results are given as percent effect.
The record does not define 0% and 100%; most values in the screen are far below 50% and negative numbers occur (in some assays of this library far below -100).
This is an unselected part of the compounds tested.
Two or more numbers in one place are separate tests of the same structure; such repeats can differ widely.

- Cc1ccc(CN2CCC3(CC2)C(=O)NCCN3CC2CC2)o1 | Pks13 thioesterase: -8.267%; TcHisRS: 4.202%; ClpP1P2: -5.573%; Leishmania in macrophages: -18.44%; LiHisRS: -10.09%
- CCN1CCC(NC(=O)NC2CCOc3ccc(Br)cc32)CC1 (stereo not given) | Pks13 thioesterase: -23.57%; TcHisRS: 5.319%; ClpP1P2: -6.139%; Leishmania in macrophages: 1.839%; LiHisRS: 16.42%
- O=C(Cc1ccc(F)c(F)c1)NC1COc2ccccc2C1=O (stereo not given) | Pks13 thioesterase: -3.652%; TcHisRS: 6.349%; ClpP1P2: -6.727%; Leishmania in macrophages: -27.98%; LiHisRS: 5.479%
- CCOc1cccc(C(C)NC(=O)N2CCC(C(N)=O)CC2)c1 (stereo not given) | Pks13 thioesterase: -8.083%; TcHisRS: 1.667%; ClpP1P2: -8.233%; Leishmania in macrophages: 0.0175%; LiHisRS: 19.23%
- CC(C)N1CCOCC2(CN(Cc3ccco3)CCO2)C1 (stereo not given) | Pks13 thioesterase: -18.15%; TcHisRS: 4.132%; ClpP1P2: -9.93%; Leishmania in macrophages: -3.445%; LiHisRS: 9.524%
- COc1cccc(CN2CCC3(CC(Nc4ccncn4)C3)C2)c1F (stereo not given) | Pks13 thioesterase: -5.692%; TcHisRS: 6.667%; ClpP1P2: -1.786%; Leishmania in macrophages: 0.03052% and 11.98%; LiHisRS: 14.43%
- Cc1ccc(CN2CC[C@@H]3[C@@H](CO[C@H]3CN3CCN(C)CC3)C2)s1 | Pks13 thioesterase: -12.01%; TcHisRS: 6.542%; ClpP1P2: 6.131%; LiHisRS: -11.11%
- Cn1cc(CNCC2Cn3nnc(-c4ccccc4)c3CO2)cn1 (stereo not given) | Pks13 thioesterase: -12.49%; TcHisRS: -0.5464%; ClpP1P2: -1.947%; Leishmania in macrophages: 11.1%; LiHisRS: 17.65%
- CC(=O)Nc1ccc(-c2ccccc2CCN)cc1 | Pks13 thioesterase: -21.5%; TcHisRS: 6.087%; ClpP1P2: -6.91%; Leishmania in macrophages: 32.49%; LiHisRS: 15%
- Cc1noc2ncc(C(=O)N3CCCC3c3ccsc3)cc12 (stereo not given) | Pks13 thioesterase: -9.348%; TcHisRS: 0%; ClpP1P2: -15.33%; Leishmania in macrophages: 25.14%; LiHisRS: 5.357%
- COc1ccc(CN2CCC3(CCN(c4cccnc4)C3=O)C2)cc1 (stereo not given) | Pks13 thioesterase: 13.82%; TcHisRS: 8.824%; ClpP1P2: -1.031%; LiHisRS: 5.714%
- COc1ccc(-c2cc(C3CCCCCN3S(=O)(=O)N(C)C)on2)cc1 (stereo not given) | Pks13 thioesterase: -50.65%; TcHisRS: -2.703%; ClpP1P2: 12.6%; Leishmania in macrophages: 11.45%; LiHisRS: 22.22%
- Cc1nc(C)n(CC2CN(Cc3cccc(OC(C)C)c3)CCO2)n1 (stereo not given) | Pks13 thioesterase: -11.29%; TcHisRS: 6.358%; ClpP1P2: -20%; Leishmania in macrophages: 21.98%; LiHisRS: 11.4%
- CN(C1CCN(c2ccccn2)CC1)S(=O)(=O)N1CCOCC1 | Pks13 thioesterase: -33.68%; TcHisRS: 2.89%; ClpP1P2: -0.7596%; Leishmania in macrophages: 20.71%; LiHisRS: 4%
- O=C(O)C(F)(F)F.[H][C@@]12C[C@@H](C(=O)NC(C)C)C[C@@]1([H])N(Cc1ccco1)CCO2 | Leishmania in macrophages: 17.11%
- CCCS(=O)(=O)N1CCC2(CC1)CN(c1ccccn1)CCO2 | Pks13 thioesterase: -6.598%; TcHisRS: -0.5464%; ClpP1P2: 8.858%; LiHisRS: 0%
- Cc1nc[nH]c1CN(Cc1ccccc1F)C1CC(C)(C)NC(C)(C)C1 | Pks13 thioesterase: -5.505%; TcHisRS: 1.149%; ClpP1P2: -18.33%; LiHisRS: 2.878%
- Cc1nc(Nc2nnc(C)s2)cc(C2CCCN2)n1.Cl (stereo not given) | Leishmania in macrophages: -1.301%
- CC(=O)N1CCC(Cc2cccc(-c3c(C)noc3C)n2)C1 (stereo not given) | Pks13 thioesterase: 8.01%; TcHisRS: 3.333%; ClpP1P2: -8.74%; Leishmania in macrophages: 2.415% and -13.46%; LiHisRS: 6.186%
- c1cnnc(N2CCCC2CNCc2nc3ccccc3o2)c1 (stereo not given) | Pks13 thioesterase: -13.62%; TcHisRS: 8.264%; ClpP1P2: 3.862%; Leishmania in macrophages: -8.311%; LiHisRS: 36.19%

2 of the entries, repeated:

- CCCS(=O)(=O)N1CCC2(CC1)CN(c1ccccn1)CCO2 | Pks13 thioesterase: -6.598%; TcHisRS: -0.5464%; ClpP1P2: 8.858%; LiHisRS: 0%
- Cc1nc(C)n(CC2CN(Cc3cccc(OC(C)C)c3)CCO2)n1 (stereo not given) | Pks13 thioesterase: -11.29%; TcHisRS: 6.358%; ClpP1P2: -20%; Leishmania in macrophages: 21.98%; LiHisRS: 11.4%

Source: ChEMBL document CHEMBL3988442, “University of Dundee, Small-Polar-MMV Screening Library” (2021).